This is an account of results in PubChem BioAssay AID2685 (National Center for Advancing Translational Sciences (NCATS), 2010).

The nature of the experiment: qHTS Assay for Lipid Storage Modulators in Drosophila S3 Cells.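 For cell number change: cells counted by Cell Tracker Red CMTPX staining in the red channel.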 The conditions noted are these: BODIPY lipid droplet fluorescence, 18-24 h; for cell number change: measured here: cell count max response, cells fed with added oleic acid. An outline of the steps:
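Drosophila S3 cells got compounds at several concentrations plus oleic acid (400 uM solution). Laser-scanning cytometry with 488 nm excitation read lipid droplets at 500-530 nm and cells at 575-640 nm. Percent activity was relative to 20 uM Triacsin C.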
Background: In qHTS, concentration-response curves come from the screen itself.

Setting [1] is: measured here: lipid fluorescence (Fed channel) AC50, cells fed with added oleic acid.
The mark [2] stands for this setting: measured here: cell number channel AC50, cells fed with added oleic acid.

The structures appear in SMILES notation. Some of the results follow. Further columns of the screen follow, without active or inactive calls. The list favours compounds with an active or inconclusive main result. Words in brackets tell the shape of the fitted curve; partial curves, single points and poor fits give uncertain potencies.

Broadly, the AC50 is the midpoint of the concentration-response curve, whichever way the signal moves. Read a high AC50 as weaker potency.

In the case of `Cn1c(=O)c2sccc2n2c(CCCC(=O)NCCc3ccccc3)nnc12`, the cell number change was -1.53%. Further, under setting [1], the AC50 is 6.51 µM [falling, single point].

For `CCOC(=O)C1C(=O)CC(C)(O)C(C(=O)OCC)C1c1cccs1` (stereo not drawn), the cell number change was 8.43%.

Take `CC(C)CCn1c(COc2ccccc2)n[nH]c1=S`: the cell number change turned out to be 17.2%. The AC50 under setting [2] is 1.3 µM [rising, single point]. In addition, the AC50 under setting [1] is 0.731 µM [rising, full curve].

Consider `COc1cnc(-c2ccccn2)nc1N(C)C`, for which the cell number change is -33.2%. The half-maximal activity concentration (AC50) under setting [2] is 2.31 µM [rising, partial curve, poor fit].

As to `COc1ccc(NC(=O)Nc2cccnc2)c(OC)c1`, the cell number change is 5.21%.

Consider `CCN(CC)C(=O)c1ccc(Cn2cc([N+](=O)[O-])cn2)o1`, for which the cell number change turned out to be 14.9%. For the same compound, the AC50 under setting [1] is 16.4 µM [rising, single point].

With `COC(=O)c1sccc1NC(=S)Nc1cccc(F)c1`, the cell number change was 27.2%. The AC50 under setting [2] is 6.51 µM [falling, single point]. For the same compound, the half-maximal activity concentration (AC50) under setting [1] was 6.51 µM [falling, single point].

On to `Cc1cc(C)c2cc(C(O)c3nnnn3Cc3ccccc3)c(=O)[nH]c2c1` (stereo not drawn), for which the cell number change came out at 19.3%. The AC50 under setting [1] is 1.46 µM [rising, partial curve].

For `COc1ccc(S(=O)(=O)N2CCOC23CCN(S(=O)(=O)c2cccs2)CC3)cc1`, under setting [1], the AC50 was 29.1 µM [falling, single point].

With `COc1ccc(OC)c(NC(=O)c2cc(-c3c(C)cc(C)cc3O)n[nH]2)c1`, the AC50 under setting [1] was 0.231 µM [falling, full curve].

Turning to `O=C(NCCCc1ccccc1)C1CCN(S(=O)(=O)c2ccc(F)cc2)CC1`, under setting [1], the half-maximal activity concentration (AC50) was 0.517 µM [falling, single point].

Take `CCNC(=O)c1cc2c(=O)n3cccc(C)c3nc2n(CCc2ccccc2)c1=N`: under setting [1], the AC50 is 0.13 µM [rising, partial curve, poor fit].

For the compound `CC1OC(Nc2cccc3ccccc23)C(O)C(O)C1O` (stereo not drawn), the cell number change amounted to 89.2%. The AC50 under setting [2] is 6.51 µM [falling, single point]. Besides, the AC50 under setting [1] was 29.1 µM [rising, single point].

Turning to `CN1C(=O)CC(c2ccccc2)CC1=O`, the cell number change came out at 23%. Further, under setting [1], the AC50 is 2.91 µM [rising, full curve].

Regarding `N/C(=N\OC(=O)CCC1CCCC1)c1ccncc1`, the cell number change is -1.84%. In addition, the AC50 under setting [2] is 4.11 µM [rising, partial curve, poor fit].

In the case of `Cn1c(NNC(=O)C2CCCCC2)cc(=O)n(C)c1=O`, the cell number change was -19.9%.

With `O=S(=O)(c1cccc(Cl)c1)N1CN(CC2CCCO2)c2nc3ccccc3nc21` (stereo not drawn), under setting [2], the AC50 was 6.51 µM [rising, single point].

For `CCc1cc2cc(C)ccc2nc1SCC(=O)N1CCN(C(=O)c2ccco2)CC1`, the cell number change is -4.45%. Further, the concentration at half-maximal activity (AC50) under setting [1] was 6.51 µM [rising, single point].

As to `O=C(Nc1cccc(Cl)c1Cl)c1ccccc1OCC(=O)N1CCOCC1`, the cell number change was found to be 5.17%.

Regarding `CCOc1ccc(-n2c(SCC(=O)Nc3ccc(OC)cc3)nc3sc4c(c3c2=O)CCN(C)C4)cc1`, the cell number change stood at 13.8%. Under setting [1], the concentration at half-maximal activity (AC50) is 11.6 µM [rising, partial curve].

Consider `CCCCN1C(=S)NC[C@@H]1C(C)CC` (stereo partly drawn), for which the cell number change worked out at 14.3%.

In the case of `COc1c2occc2cc2ccc(=O)oc12`, the half-maximal activity concentration (AC50) is 1.64 µM [rising, partial curve] under setting [2] and 0.92 µM [rising, partial curve] under setting [1].

In the case of `CCOC(=O)c1c(C)[nH]c(C(=O)OCc2ccc(F)cc2)c1C`, the cell number change was found to be 16.4%. Under setting [1], the AC50 is 2.91 µM [rising, full curve].

As for `O=S(=O)(NC1CCCCC1)c1cccs1`, the cell number change was found to be 7.69%.

With `O=C(Oc1c(Cl)cc(Cl)c2cccnc12)N1CCCCC1`, the cell number change came out at 248%. The AC50 under setting [2] is 13 µM [rising, partial curve]. The AC50 under setting [1] was 6.51 µM [rising, single point].

Take `O=C(CSc1ccc(-c2cccnc2)nn1)Nc1ccc(F)cc1F`: the cell number change amounted to 17.3%.

For `COC(=O)C1CCN(CC(=O)Nc2ccccc2Sc2ccccc2)CC1`, the cell number change was -11.1%.

In the case of `O=C(CC12CC3CC(CC(C3)C1)C2)Nc1ccc(C(=O)O)cc1`, the concentration at half-maximal activity (AC50) under setting [1] is 29.1 µM [rising, single point].

`CCN(CC)S(=O)(=O)c1ccc(OC)c(NC(=O)c2cc(=O)[nH]c3ccccc23)c1`: the AC50 was 5.8 µM [rising, single point] under setting [2] and 6.51 µM [rising, single point] under setting [1].

Regarding `CCOC(=O)c1c(OCCO)nn(-c2ccccc2)c1N`, the cell number change came out at 40.6%.

Consider `CCC(C)(C(=O)NC1CCCCC1)N(Cc1ccco1)C(=O)c1ccc2c(c1)OCO2` (stereo not drawn), for which the AC50 under setting [2] was 4.61 µM [rising, single point] and the AC50 under setting [1] is 6.51 µM [rising, single point].

Regarding `C=C(C)C1CC=C(C)/C(=N/NC(=O)C2CC2c2ccccc2)C1` (stereo not drawn), the cell number change is 64.1%. Also, under setting [2], the half-maximal activity concentration (AC50) is 0.058 µM [rising, full curve, poor fit]. Also, the AC50 under setting [1] was 29.1 µM [rising, partial curve, poor fit].

As for `Brc1ccc(OCc2nc3ccccc3[nH]2)cc1`, the cell number change was 12%. The AC50 under setting [1] is 0.411 µM [falling, full curve].

Consider `O=C(NC(=S)N1CCOCC1)C12CCC3CC(CC(C3)C1)C2`, for which the cell number change is -18.4%. Further, the concentration at half-maximal activity (AC50) under setting [1] is 29.1 µM [rising, single point].

As to `CCCC(=O)N(c1ccc2oc(C)c(C(C)=O)c2c1)S(=O)(=O)c1ccc(C(=O)O)cc1`, the cell number change was determined as 6.31%. Besides, the AC50 under setting [1] was 29.1 µM [rising, single point].

For `O=C(CCS(=O)(=O)Cc1ccccc1)N1CCc2ccccc2C1`, the cell number change amounted to 30.8%. Moreover, the AC50 under setting [2] is 5.17 µM [rising, full curve, poor fit]. Moreover, under setting [1], the AC50 is 6.51 µM [rising, single point].

As to `CCC(CC)COC(=O)C1=C(C)NC(=O)NC1c1ccc2c(c1)OCO2` (stereo not drawn), the cell number change is -50.4%. Under setting [1], the AC50 was 29.1 µM [falling, single point].

Regarding `CCC(=O)Nc1cccc(NC(=S)NC(=O)c2cccc(C)c2)c1`, the cell number change is -10.5%.

On to `N#Cc1c(-c2ccc(Cl)cc2)ccn2nc(CCC(=O)O)nc12`, for which the AC50 under setting [1] is 20.6 µM [rising, partial curve, poor fit].

For the compound `CCN(C(=O)Nc1cccc(Cl)c1)c1ccccc1`, the cell number change is -3.86%.

As to `O=C(COC(=O)Cc1ccc(Cl)cc1Cl)Nc1ccc(OC(F)F)cc1`, the cell number change stood at 16.7%. In addition, the concentration at half-maximal activity (AC50) under setting [2] was 0.00461 µM [falling, full curve, poor fit]. Under setting [1], the AC50 is 25.9 µM [rising, single point].

As to `Oc1ccc(N=Cc2ccc(O)c(O)c2)cc1`, the cell number change was -35.9%. Under setting [2], the AC50 is 4.61 µM [falling, full curve]. Further, the AC50 under setting [1] is 4.11 µM [falling, full curve].

Turning to `COc1ccc(OC)c(/C=N\NC(=O)c2cc3c(ccc4ccccc43)o2)c1`, the cell number change is -11.3%.

For `Cc1cc(C)c2[nH]c(C)c(CN3CCCCCC3)c(=O)c2c1`, the cell number change is 23.3%. Moreover, under setting [1], the AC50 was 0.291 µM [falling, partial curve, poor fit].

With `COc1cccc(C(=O)COC(=O)CCC(=O)NC2CCCCC2)c1`, the cell number change is -10.7%. Moreover, under setting [2], the AC50 was 7.31 µM [falling, single point]. In addition, the AC50 under setting [1] was 6.51 µM [falling, partial curve, poor fit].

`CC(C)(C)C(=O)Nc1ccc(-c2cc3cc(Cl)ccc3o2)cc1`: the cell number change amounted to 28%. For the same compound, the AC50 under setting [1] was 2.06 µM [rising, partial curve].

As to `O=C(NC1CCN(Cc2ccccc2)CC1)c1cccc(S(=O)(=O)Nc2cc(C(F)(F)F)ccc2Cl)c1`, the cell number change was -6.79%. Also, the AC50 under setting [1] is 0.164 µM [falling, full curve, poor fit].

Take `CCOC(=O)c1cnn(-c2ccccc2)c1NC(=O)c1ccccc1`: the cell number change amounted to 24.9%. The AC50 under setting [1] is 29.1 µM [rising, partial curve, poor fit].

As to `CN(C(=O)c1ccc(NC(=O)Cc2cccc(NC(=O)C3CCCN(C(=O)CCc4ccccc4)C3)c2)cc1)C1CCCC1` (stereo not drawn), the cell number change was -38.9%. The concentration at half-maximal activity (AC50) under setting [2] was 1.3 µM [falling, partial curve, poor fit].

On to `COc1ccccc1N(C(=O)CNS(=O)(=O)c1ccccc1)C(C(=O)NCc1ccco1)C(C)C` (stereo not drawn), for which the cell number change is -14.1%. Besides, the AC50 under setting [1] is 3.26 µM [rising, single point].

On to `CCOC(=O)c1ccc(/[N+]([O-])=C/c2ccccc2)cc1`, for which the cell number change was 20%. For the same compound, the AC50 under setting [2] is 0.00517 µM [rising, full curve]. Also, the AC50 under setting [1] was 25.9 µM [rising, single point].

As for `Oc1[nH]c2ccccc2c1C1=NCCCCC1`, the cell number change stood at 21.7%. Under setting [1], the AC50 was 0.116 µM [rising, full curve, poor fit].

On to `CCN(CC)CCN1C(=O)C(=O)/C(=C(/O)c2ccc(S(=O)(=O)N3CCOCC3)cc2)C1c1ccc(C(C)(C)C)cc1` (stereo not drawn), for which the cell number change came out at 2.94%. Also, the AC50 under setting [1] was 0.206 µM [rising, single point].

Turning to `COc1ccc(-c2nc(-c3ccccc3)c(-c3cc([N+](=O)[O-])ccc3C)[nH]2)cc1O`, the cell number change is -54.2%. Further, under setting [2], the AC50 was 25.9 µM [falling, partial curve]. The AC50 under setting [1] was 29.1 µM [falling, partial curve].

In the case of `CCN1CCN(C(c2ccccc2F)c2nnnn2Cc2ccc3c(c2)OCO3)CC1` (stereo not drawn), the cell number change was 38.5%. The AC50 under setting [2] is 32.6 µM [rising, single point]. Further, the AC50 under setting [1] was 29.1 µM [falling, partial curve].

Take `CC1CCN(S(=O)(=O)c2nnc(NC(=O)c3cccc([N+](=O)[O-])c3)s2)CC1`: the cell number change was 19.8%. Further, the AC50 under setting [1] is 0.58 µM [falling, single point].

On to `CCc1ccccc1OC[C@@H](O)CN[C@H]1CCCc2ccccc21`, for which the cell number change is -65.3%. In addition, the AC50 under setting [1] is 9.2 µM [falling, partial curve].

Turning to `COc1ccc(C(=O)OCC(=O)c2cc(OC)ccc2OC)c(OC)c1`, the cell number change was -6.3%. Besides, the AC50 under setting [1] is 8.2 µM [rising, partial curve].

As for `Cc1cccc(NC(=O)CN2C(=O)NC3(CCCC3)C2=O)n1`, the cell number change was -0.423%. Under setting [1], the half-maximal activity concentration (AC50) was 6.51 µM [falling, single point].

With `CCN(c1ccccc1)S(=O)(=O)c1cccc(C(=O)NCCOc2ccccc2OC)c1`, the cell number change was -100%. For the same compound, the AC50 under setting [2] was 29.1 µM [falling, partial curve, poor fit].
